What follows is the remainder of the data, with few or none of the hits. Active and inactive are the calls of the source. No stated cut-off is given here; in the data, active means hERG blockade below about -20% or above about 20%; inactive means in between.
Target: Voltage-gated inwardly rectifying potassium channel KCNH2 (Homo sapiens) (UniProt Q12809)
Experiment: modulators of KCNH2 ion channel function, cellular (AID 376);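 further: 0% = buffer alone and 100% = reference blocker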
Conditions: hERG-expressing cells, channel activity single-concentration screen; concentration not given here

Sequences of proteins named here, by UniProt entry; tags and fusion partners are left off. A change or cut given only in a name is not applied to a line headed by its entry.
UniProt Q12809: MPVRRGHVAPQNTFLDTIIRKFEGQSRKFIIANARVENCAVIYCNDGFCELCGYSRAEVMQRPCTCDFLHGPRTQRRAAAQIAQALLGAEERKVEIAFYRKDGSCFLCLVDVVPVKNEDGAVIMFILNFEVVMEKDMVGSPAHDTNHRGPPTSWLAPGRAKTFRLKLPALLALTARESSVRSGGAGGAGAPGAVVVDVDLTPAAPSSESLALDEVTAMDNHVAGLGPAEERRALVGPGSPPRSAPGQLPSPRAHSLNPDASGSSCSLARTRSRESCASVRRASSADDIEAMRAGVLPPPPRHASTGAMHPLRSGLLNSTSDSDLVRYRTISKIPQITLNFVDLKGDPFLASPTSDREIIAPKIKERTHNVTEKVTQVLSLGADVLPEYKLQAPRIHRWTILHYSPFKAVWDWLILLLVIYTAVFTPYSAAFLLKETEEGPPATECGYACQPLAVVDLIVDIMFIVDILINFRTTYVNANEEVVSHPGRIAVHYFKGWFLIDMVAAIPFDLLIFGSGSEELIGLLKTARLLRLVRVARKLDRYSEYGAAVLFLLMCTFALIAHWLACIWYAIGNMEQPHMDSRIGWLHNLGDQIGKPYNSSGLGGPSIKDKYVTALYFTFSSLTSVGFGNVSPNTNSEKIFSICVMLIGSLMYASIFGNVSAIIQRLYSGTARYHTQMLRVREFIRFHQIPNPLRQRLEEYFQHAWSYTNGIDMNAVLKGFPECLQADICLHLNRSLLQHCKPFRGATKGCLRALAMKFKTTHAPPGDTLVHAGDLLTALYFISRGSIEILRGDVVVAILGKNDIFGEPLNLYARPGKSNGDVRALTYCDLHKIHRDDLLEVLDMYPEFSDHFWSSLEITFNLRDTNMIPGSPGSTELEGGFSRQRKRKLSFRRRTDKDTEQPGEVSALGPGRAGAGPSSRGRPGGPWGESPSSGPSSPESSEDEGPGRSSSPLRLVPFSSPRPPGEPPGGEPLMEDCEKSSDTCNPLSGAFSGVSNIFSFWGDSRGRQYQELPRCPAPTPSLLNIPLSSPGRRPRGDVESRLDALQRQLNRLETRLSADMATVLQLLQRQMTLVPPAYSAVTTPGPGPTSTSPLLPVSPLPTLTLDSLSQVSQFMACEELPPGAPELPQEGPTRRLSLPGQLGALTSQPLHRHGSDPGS

Compound	hERG blockade
CN1C2CCC1CC(OC(=O)C(O)c1ccccc1)C2 (stereo unspecified)	inactive: -16.6%

Source: PubChem BioAssay AID376 (PDSP, 2006)
